The list shows only some results of the screen, not a fair sample: it gathers some chemical classes. Not every dose and run of a compound is shown. T/C is the treated group as % of the vehicle group. Some doses have a count of surviving animals in place of a T/C: the source files T/C as zero there, which appears to mark a toxic dose or a test without result, not a measured value. Counts of survivors are from the toxicity check (mostly the fifth day) where no day follows; animals may have died later. Schedule codes are those of the source, taken here to give the interval after Q, in days (D) or hours (H), and the number of doses after X. Some survivor counts are full or nearly so, which does not show that the dose was tolerated: survival well below the control is almost never listed, so the zero probably covers shortened survival too. Some entries hold several experiments; their values stand side by side, smallest first. For survival time, this PubChem deposit counts one and a half times the control or more as active, and values a quarter to a half above the control carry no call in these data; other NCI protocols may use other cut-offs. Marks such as (2×) give the number of equal values in this list. Some entries show no survivor count and are marked so; the dose need not have been tolerated. Some T/C values carry the count of animals alive at the toxicity check (mostly the fifth day); without a count or a note in brackets, all were alive then.

This assay relates to L1210 leukemia ip in BDF1 mice, survival T/C. The assay is described as follows: NCI In Vivo Anticancer Drug Screen. Data for tumor model L1210 Leukemia (intraperitoneal) in B6D2F1 (BDF1) mice. The settings on record: T/C endpoint: mean survival time, higher T/C = longer survival.
The mark [1] stands for this setting: dose: 50.0 mg/kg/injection, schedule: Q01DX009 (ip), vehicle: saline with Tween-80.
Where [2] appears, read: dose: 100.0 mg/kg/injection, schedule: Q01DX009 (ip), vehicle: saline with Tween-80.
The mark [3] stands for this setting: dose: 200.0 mg/kg/injection, schedule: Q01DX009 (ip), vehicle: saline with Tween-80.
Setting [4] is: dose: 100.0 mg/kg/injection, schedule: Q01DX001 (ip), vehicle: Klucel (hydroxypropylcellulose) (HPC).
Setting [5] is: dose: 200.0 mg/kg/injection, schedule: Q01DX001 (ip), vehicle: Klucel (hydroxypropylcellulose) (HPC).
Where [6] appears, read: dose: 100.0 mg/kg/injection, schedule: Q04DX002 (ip), vehicle: saline.
Setting [7] is: dose: 200.0 mg/kg/injection, schedule: Q04DX002 (ip), vehicle: saline.
The mark [8] stands for this setting: dose: 100.0 mg/kg/injection, schedule: Q01DX001 (ip), vehicle: carboxymethylcellulose (CMC).
[9] abbreviates: dose: 200.0 mg/kg/injection, schedule: Q01DX001 (ip), vehicle: carboxymethylcellulose (CMC).
Where [10] appears, read: dose: 400.0 mg/kg/injection, schedule: Q01DX001 (ip), vehicle: carboxymethylcellulose (CMC).

Consider `CC1CC[P+](c2ccccc2)(c2ccccc2)c2c1ccc1ccccc21.F[P-](F)(F)(F)(F)F` (centres undefined), for which the T/C reads like this: (dose: 3.13 mg/kg/injection, schedule: Q01DX009 (ip), vehicle: saline with Tween-80) 103 % of control; (dose: 6.25 mg/kg/injection, schedule: Q01DX009 (ip), vehicle: saline with Tween-80) 103 % of control; (dose: 12.5 mg/kg/injection, schedule: Q01DX009 (ip), vehicle: saline with Tween-80) 106 % of control (2×); (dose: 25.0 mg/kg/injection, schedule: Q01DX009 (ip), vehicle: saline with Tween-80) 92 % of control. The survivor count was 0 of 3 and 3 of 3 under setting [1]; 0 of 3 under setting [2]; 0 of 3 under setting [3].
For `O=[N+]([O-])c1ccc(Sc2ccc([N+](=O)[O-])cc2[N+](=O)[O-])c([N+](=O)[O-])c1`, the T/C was 105 % of control [survivor count not shown] under setting [1]; 92 % of control [survivor count not shown] under setting [4]; 94 % of control [survivor count not shown] under setting [2]; 95 % of control [survivor count not shown] under setting [5]; 91 % of control [survivor count not shown] under setting [3]; 95 % of control [survivor count not shown] (dose: 400.0 mg/kg/injection, schedule: Q01DX001 (ip), vehicle: Klucel (hydroxypropylcellulose) (HPC)).
For the molecule `CN(CN(CN(C[n+]1ccccc1)[N+](=O)[O-])[N+](=O)[O-])[N+](=O)[O-]`, the T/C is, setting by setting: under setting [6], 105 % of control [survivor count not shown]; under setting [7], 102 % of control [survivor count not shown].
Consider `OOC1(OOC2(OO)CCCCC2)CCCCC1`, for which the T/C under setting [1] is 96 % of control [survivor count not shown].
`COc1cc(CCNCCCl)cc(OC)c1OC`: the T/C runs as follows: (dose: 50.0 mg/kg/injection, schedule: Q01DX001 (ip), vehicle: saline) 104 % of control; (dose: 100.0 mg/kg/injection, schedule: Q01DX001 (ip), vehicle: saline) 116 % of control; (dose: 200.0 mg/kg/injection, schedule: Q01DX001 (ip), vehicle: saline) 113 % of control; (dose: 400.0 mg/kg/injection, schedule: Q01DX001 (ip), vehicle: saline) 98 % of control [3 of 4 alive].
With `CC1C=C(Cc2ccccc2)CC(C)N1C` (centres undefined), the T/C is 91 % of control [survivor count not shown] (dose: 50.0 mg/kg/injection, schedule: Q01DX001 (ip), vehicle: carboxymethylcellulose (CMC)); 96 % of control [survivor count not shown] under setting [8]; 94 % of control [survivor count not shown] under setting [9]; 93 % of control [survivor count not shown] under setting [10].
In the case of `CN(CN(CN(C)[N+](=O)[O-])CN(C)[N+](=O)[O-])[N+](=O)[O-]`, the T/C under setting [8] was 96 % of control [survivor count not shown]; the T/C (dose: 100.0 mg/kg/injection, schedule: Q04DX003 (ip), vehicle: Klucel (hydroxypropylcellulose) (HPC)) was 105 % of control [survivor count not shown]; the T/C under setting [9] was 98 % of control [survivor count not shown]; the T/C (dose: 200.0 mg/kg/injection, schedule: Q04DX003 (ip), vehicle: Klucel (hydroxypropylcellulose) (HPC)) was 101 % of control [survivor count not shown]; the T/C under setting [10] was 96 % of control [survivor count not shown]; the T/C (dose: 400.0 mg/kg/injection, schedule: Q04DX003 (ip), vehicle: Klucel (hydroxypropylcellulose) (HPC)) is 108 % of control [survivor count not shown].
As for `O=C(Cl)c1c([N+](=O)[O-])cc([N+](=O)[O-])cc1[N+](=O)[O-]`, the T/C under setting [8] was 97 % of control [survivor count not shown], the T/C under setting [9] is 101 % of control [survivor count not shown] and the T/C under setting [10] is 95 % of control [survivor count not shown].
As for `C[CH2][Ge]([C]#N)([CH2]C)[CH2]C`, the T/C was 101 % of control (dose: 6.25 mg/kg/injection, schedule: Q04DX003 (ip), vehicle: saline) and 100 % of control (dose: 12.5 mg/kg/injection, schedule: Q04DX003 (ip), vehicle: saline). The survivor count by setting is: (dose: 25.0 mg/kg/injection, schedule: Q04DX003 (ip), vehicle: saline) 0 of 6; (dose: 50.0 mg/kg/injection, schedule: Q04DX003 (ip), vehicle: saline) 0 of 6; (dose: 100.0 mg/kg/injection, schedule: Q04DX003 (ip), vehicle: saline) 0 of 6; (dose: 200.0 mg/kg/injection, schedule: Q04DX003 (ip), vehicle: saline) 0 of 6; (dose: 400.0 mg/kg/injection, schedule: Q04DX003 (ip), vehicle: saline) 0 of 6.
In the case of `COCC(NCCCl)c1ccccc1` (centres undefined), the T/C by setting is: under setting [6], 109 % of control; under setting [7], 105 % of control; (dose: 400.0 mg/kg/injection, schedule: Q04DX002 (ip), vehicle: saline) 109 % of control.
Regarding `CCCc1cc(C)cc(N=Cc2ccccc2)c1O.O=C1c2cc([N+](=O)[O-])ccc2-c2c1cc([N+](=O)[O-])cc2[N+](=O)[O-]`, the T/C (dose: 100.0 mg/kg/injection, schedule: Q04DX003 (ip), vehicle: saline with Tween-80) was 95 % of control and the T/C (dose: 200.0 mg/kg/injection, schedule: Q04DX003 (ip), vehicle: saline with Tween-80) was 100 % of control [5 of 6 alive]. Further, the survivor count (dose: 400.0 mg/kg/injection, schedule: Q04DX003 (ip), vehicle: saline with Tween-80) is 3 of 6.
For `Cc1c2ccccc2cc2c1ccc1cccc(F)c12.O=C1c2cc([N+](=O)[O-])ccc2-c2c1cc([N+](=O)[O-])cc2[N+](=O)[O-]`, the T/C is, setting by setting: (dose: 50.0 mg/kg/injection, schedule: Q01DX001 (ip), vehicle: Klucel (hydroxypropylcellulose) (HPC)) 106 % of control [survivor count not shown]; under setting [4], 112 % of control [survivor count not shown]; under setting [5], 106 % of control [survivor count not shown].
For the molecule `CP(=S)(N=[N+]=[N-])OC1CCCCC1` (centres undefined), the T/C was 94 % of control [survivor count not shown] (dose: 0.19 mg/kg/injection, schedule: Q01DX009 (ip), vehicle: saline); 101 % of control [survivor count not shown] (dose: 0.39 mg/kg/injection, schedule: Q01DX009 (ip), vehicle: saline); 99 % of control [survivor count not shown] (dose: 0.78 mg/kg/injection, schedule: Q01DX009 (ip), vehicle: saline); 90 % of control [survivor count not shown] (dose: 1.56 mg/kg/injection, schedule: Q01DX009 (ip), vehicle: saline); 213 % of control [survivor count not shown] (dose: 6.25 mg/kg/injection, schedule: Q01DX009 (ip), vehicle: saline).
